Measurements published in patent US20210121565A1.
Results are given in words; binding and its absence hold for the method and conditions named. Some binding calls cover weakened binding; strength is not graded here.

Chains of the proteins cited; added tags and fusions are not shown. Lines headed by an entry give the natural chain unless they say otherwise; changes in a name come on top. A line that says so, or that is headed by a name, gives the form on record, which may keep a tag or linker.
aggregated tau in FFPE brain sections of a normal human individual (minimal tau aggregation) (P10636, form named): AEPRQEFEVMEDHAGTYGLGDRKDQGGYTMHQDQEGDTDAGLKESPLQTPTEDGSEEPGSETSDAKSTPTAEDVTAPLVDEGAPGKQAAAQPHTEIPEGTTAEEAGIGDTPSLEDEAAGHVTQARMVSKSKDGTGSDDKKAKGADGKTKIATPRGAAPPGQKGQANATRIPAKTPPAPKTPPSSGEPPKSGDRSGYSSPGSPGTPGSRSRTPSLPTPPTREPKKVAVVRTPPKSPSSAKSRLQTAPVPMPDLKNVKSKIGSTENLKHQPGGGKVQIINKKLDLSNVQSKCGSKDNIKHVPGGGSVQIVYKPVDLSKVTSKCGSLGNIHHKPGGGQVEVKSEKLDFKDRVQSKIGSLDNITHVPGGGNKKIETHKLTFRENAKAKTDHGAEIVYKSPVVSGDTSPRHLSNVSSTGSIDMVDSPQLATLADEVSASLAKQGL
aggregated tau in FFPE brain sections of a PD (Pick's disease) patient (severe tau aggregation) (P10636, form named): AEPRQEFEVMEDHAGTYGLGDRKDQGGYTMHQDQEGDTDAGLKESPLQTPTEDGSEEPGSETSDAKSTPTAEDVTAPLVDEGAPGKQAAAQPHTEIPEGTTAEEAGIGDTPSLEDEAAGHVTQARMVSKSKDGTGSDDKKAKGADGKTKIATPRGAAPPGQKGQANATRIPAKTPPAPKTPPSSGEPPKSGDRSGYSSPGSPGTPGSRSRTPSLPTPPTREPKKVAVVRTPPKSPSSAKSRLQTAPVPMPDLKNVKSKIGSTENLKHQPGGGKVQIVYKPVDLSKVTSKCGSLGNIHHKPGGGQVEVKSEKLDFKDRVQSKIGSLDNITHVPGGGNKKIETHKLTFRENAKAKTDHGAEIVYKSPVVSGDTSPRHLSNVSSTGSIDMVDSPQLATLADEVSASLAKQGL

Assays:
[1] = target: aggregated tau in FFPE brain sections of an AD patient (severe tau aggregation and NFT formation) (human) (UniProt P10636); assay: immunohistochemistry on FFPE brain sections
[2] = target: aggregated tau in FFPE brain sections of a PD (Pick's disease) patient (severe tau aggregation) (human) (UniProt P10636); assay: immunohistochemistry on FFPE brain sections
[3] = target: aggregate tau fibrils purified from AD brain homogenates (MC1-affinity purified) (human) (UniProt P10636); assay: ELISA on coated purified AD tau fibrils
[4] = target: aggregated tau in FFPE brain sections of an AD patient (severe tau aggregation and NFT formation) (human) (UniProt P10636); assay: immunohistochemistry on FFPE brain sections, semi-quantitative score (severe, +++)
[5] = target: aggregated tau in FFPE brain sections of a PD (Pick's disease) patient (severe tau aggregation) (human) (UniProt P10636); assay: as above
[6] = target: aggregated tau in FFPE brain sections of a normal human individual (minimal tau aggregation) (human) (UniProt P10636); assay: immunohistochemistry on FFPE brain sections, semi-quantitative score (mild, +)

Measured: binding

B1: Exemplified anti-Tau antibody (having both HCs of SEQ ID NO.2 and both LCs of SEQ ID NO.1) (antibody, human IgG4 S228P, kappa, F234A L235A, V domains shown)
VH: EVQLVQSGAEVKKPGESLKISCKGSGYTFSNYWIEWVRQMPGKGLEWMGEILPGSDSIKYEKNFKGQVTISADKSISTAYLQWSSLKASDTAMYYCARRGNYVDDWGQGTLVTVSS
VL: EIVLTQSPGTLSLSPGERATLSCRSSQSLVHSNQNTYLHWYQQKPGQAPRLLIYKVDNRFSGIPDRFSGSGSGTDFTLTISRLEPEDFAVYYCSQSTLVPLTFGGGTKVEIKR
binds: [1] | [2] | [3] | [4] | [5] | [6]
